The data set can be described thus: general procedure: Boc solid-phase peptide synthesis; HBTU (in situ neutralization). The note with it: oxidative folding step; for oxidative folding yield: peak area of correctly folded peptide vs total HPLC peak area.

[G18K] kalata B1 yielded an oxidative folding yield of 22%.
Turning to [N29K] kalata B1, the oxidative folding yield is 29%.
For the substance [T8K] kalata B1, the oxidative folding yield turned out to be 15%.
In the case of [T20K] kalata B1, the oxidative folding yield is 40%. For the same substance, the “final HPLC purity” value (analytical RP-HPLC) is on record as over 95%.
In the case of [V10A] kalata B1, the oxidative folding yield is listed as 21%.
Same read-out and setting: then [V10K] kalata B1, with 16%.

These data come from PMC3694003 (PLoS ONE, 2013).
